Laboratory results: PubChem BioAssay AID602196 (INSERM, 2012)
Assay: 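Knock-downs that protect lung cancer cells from cisplatin or sensitise them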. System: human A549 lung cancer cells. Reagents: siRNA pair against human genes. Duration: 48 h transfection before cisplatin; time from cisplatin to read-out not stated. Conditions: cisplatin at a dose killing half of control-siRNA cells; exact dose and duration not given. Detection: 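Cisplatin cell death as a shift from the 50% death seen with control siRNA; siRNAs toxic or growth-blocking alone scored 0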. Scale: two-siRNA summed score (-2 to +2): higher = both siRNAs protect from cisplatin killing; -2 means both sensitise. Call rule: 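Each siRNA scores 0 if harmful alone by LDH or WST-1, otherwise +1 if it reduces and -1 if it increases cisplatin killing; a gene is active when both siRNAs agree (sum +2 or -2)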. Meaning of the calls: active = both siRNAs shift cisplatin killing the same way; inactive = no consistent shift, or siRNA harmful alone.
The deposit covers about 23,000 reagents; shown is a part drawn at random. 455 of them (2%) count as active. 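Active includes both protection and sensitisation; some change values fall well beyond the stated -50 to +50 range.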 A number with no mark means an inactive call. Further read-outs or replicates are left out here. Not stated in the record: the amount of reagent.

Gene	PubChem SID	two-siRNA summed score (-2 to +2)
ACVR2A	SID131505764	0
STRADB	SID131505462	0
TRIM54	SID131517390	0
LOC389207	SID131501566	-1
SSU72	SID131503313	0
ZDHHC15	SID131516976	0
LOC440744	SID131517413	0
TRIM24	SID131501167	-1
LOC442648	SID131519463	1
INPP5D	SID131510350	0
SYCN	SID131503636	0
IFITM1	SID131508020	0
HNRNPD	SID131503212	0
TSLIG2	SID131511506	0
LILRA6	SID131517277	0
SLCO1B3	SID131512548	0
LOC388628	SID131519653	1
LOC390424	SID131521102	1
LOC390874	SID131520825	1
ZNF385B	SID131501801	-1
LOC440617	SID131521801	1
LOC440284	SID131515956	0
RAB11FIP5	SID131521152	1
LOC390980	SID131518630	0
LOC440324	SID131515085	0
PSTK	SID131513337	0
LINC02111	SID131516463	0
H6PD	SID131507207	0
FLJ41327 (retired record)	SID131522831	1
PENK	SID131513795	0
CENPE	SID131509355	0
RTP3	SID131518189	0
LOC390760 (retired record)	SID131516560	0
LOC441038	SID131513088	0
KIAA1922	SID131502245	-1
SCAND3	SID131508422	0
LOC138255	SID131516020	0
IL6R	SID131500465	-1
MEN1	SID131501126	-1
C2CD5	SID131521768	1
DDX6	SID131508126	0
LOC133874	SID131521314	1
RSL24D1	SID131517804	0
DKFZp686L21136	SID131513685	0
TREX2	SID131503362	0
NPRL2	SID131502826	0
HUNK	SID131519493	1
CES3	SID131520967	1
CORIN	SID131500665	-1
WDR6	SID131504681	0
ULBP1	SID131507384	0
LIPH	SID131502760	-1
IRAK1BP1	SID131522794	1
MRPL22	SID131501620	-1
MRPL22	SID131517764	0
JAML	SID131514199	0
RPSA	SID131507577	0
